Data: US8729286B2, “Platinum compounds as treatment for cancers, and related methods, kits, and compositions” (Massachusetts Institute of Technology, priority 2012, dated 2014)
Some entries share one result that the patent states for a list of compounds. For at least one compound, name, drawing or mass did not settle the structure.

Key:
[1] = system: HeLa, A549, U2OS, and MCF-7 cell lines; assay: MTT cytotoxicity assay, summary over the four cell lines; assay type: cell-based, human; settings: 72 h, span over HeLa, read-out: IC50 values within the four cell lines tested
Description: The cells were treated for a continuous 72 h period. The resulting 50% growth inhibitory concentration (IC50) values are summarized in Table 4 and graphically depicted in FIG. 5.
HeLa (human cervical cancer), A549 (human lung cancer), U2OS (osteosarcoma), MCF-7 (human breast cancer) cells were grown as adherent monolayers in growth medium consisting of Dulbecco's Modified Eagle Medium (DMEM) supplemented with 10% fetal bovine serum (FBS) and 1% penicillin/streptomycin. The cultures were grown in 25 cm^2 flasks in an incubator at 37° C. with a humidified atmosphere composed of 5% CO2.
Trypsinized cells were seeded into a 96-well plate at a cell density of 2000 cells/well in 200 μL of growth medium and incubated for 24 h. The medium was then removed and 200 μL new growth medium containing various concentrations of the platinum complexes was added. After 72 h, the medium was removed, 200 μL of a 0.8 mg/mL solution of MTT in DMEM was added, and the plate was incubated further for 4 h. The DMEM/MTT mixture was aspirated and 200 μL of DMSO with 10% pH 10.5 glycine buffer was added to dissolve the resulting purple formazan crystals. The absorbance of the plates was read at 555 nm. Absorbance values were normalized to the platinum-free control wells and plotted as [Pt] versus % viability. IC50 values were interpolated from the resulting curves. The reported IC50 values are the averages from at least three independent experiments, which each consisted of six replicates per concentration level.

[2] = system: nuclear DNA of HeLa cells; assay: Intracellular DNA platination in HeLa cells by GFAAS; assay type: cell-based, human; settings: 100 μM for 4 h, then 16 h platinum-free medium
Description: Because platinum-based drugs exert their cytotoxic effects by the formation of DNA cross-links, the extent to which 1-5 bind to intracellular DNA was measured. Cells were treated with 100 μM of the platinum complexes for 4 h and then incubated for an additional 16 h in platinum-free growth medium. The nuclear DNA was isolated, and the quantity of bound platinum was measured by GFAAS.
Five million HeLa cells were seeded in a 100 mm Petri dish containing 9 mL of growth medium. On the following day, the cells were treated with the platinum complex at 100 μM concentration for 4 h. The growth medium was then replaced with platinum-free medium, and the cells were incubated for an additional 16 h. Cells, both floating and attached, were collected and combined. Trypsin (2 mL) was used to detach the cells. The combined cells were centrifuged for 5 min at 4° C., and the resulting cell pellet was washed twice with 3 mL of ice-cold PBS. DNAzol (1 mL, genomic DNA isolation reagent, MRC), containing 100 μg/mL RNase A, was used to lyse the cell pellet. DNA was precipitated with 0.5 mL of absolute ethanol, washed 2 times with 75% ethanol (0.75 mL), and redissolved in 200 μL of 8 mM NaOH. The DNA concentration was determined by UV-visible spectroscopy, and platinum was quantified by GFAAS. […]

Compound | IC50 [1] [µM] | DNA platination [2]
O=[N+]([O-])[O-].[NH3+][Pt-2]1([NH3+])[O]C(c2ccccc2)=CC(c2ccccc2)=[O+]1 (centres unmarked) [Compound 5, [Pt(dbm)(NH3)2](NO3)] | < 10 | 14-23 pmol Pt/μg DNA
O=[N+]([O-])[O-].[NH3+][Pt-2]1([NH3+])[O]C(C(F)(F)F)=CC(c2ccccc2)=[O+]1 (centres unmarked) [Compound 4, [Pt(tfbz)(NH3)2](NO3)] | < 10 | 14-23 pmol Pt/μg DNA
CC1=CC(C(F)(F)F)=[O+][Pt-2]([NH3+])([NH3+])[O]1.CC1=CC(C(F)(F)F)=[O+][Pt-2]([NH3+])([NH3+])[O]1.O=S(=O)([O-])[O-] (centres unmarked) [Compound 2, [Pt(tfac)(NH3)2](SO4)0.5] | < 10 | 
